Data reported in doi:10.1101/2021.08.05.455219.
Where two headings read alike, the source gives them in different places. Results are given in words; binding and its absence hold for the method and conditions named. Binding seen in cells or lysates may run through a third protein. A yes stands for co-enrichment or nearness to the bait. Other partners may have been found.

By UniProt entry, the sequences of proteins in these tests, tags left out.
UniProt Q91YI4: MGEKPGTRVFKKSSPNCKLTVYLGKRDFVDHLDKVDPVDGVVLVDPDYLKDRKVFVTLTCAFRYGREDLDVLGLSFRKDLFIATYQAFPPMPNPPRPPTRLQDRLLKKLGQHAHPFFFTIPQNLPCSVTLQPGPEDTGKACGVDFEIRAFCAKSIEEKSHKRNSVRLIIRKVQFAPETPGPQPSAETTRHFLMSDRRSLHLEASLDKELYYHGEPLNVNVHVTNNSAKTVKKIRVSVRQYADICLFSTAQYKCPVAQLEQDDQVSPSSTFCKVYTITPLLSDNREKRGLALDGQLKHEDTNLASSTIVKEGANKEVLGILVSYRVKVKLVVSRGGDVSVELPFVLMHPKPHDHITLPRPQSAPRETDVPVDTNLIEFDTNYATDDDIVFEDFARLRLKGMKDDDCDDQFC
UniProt P63094: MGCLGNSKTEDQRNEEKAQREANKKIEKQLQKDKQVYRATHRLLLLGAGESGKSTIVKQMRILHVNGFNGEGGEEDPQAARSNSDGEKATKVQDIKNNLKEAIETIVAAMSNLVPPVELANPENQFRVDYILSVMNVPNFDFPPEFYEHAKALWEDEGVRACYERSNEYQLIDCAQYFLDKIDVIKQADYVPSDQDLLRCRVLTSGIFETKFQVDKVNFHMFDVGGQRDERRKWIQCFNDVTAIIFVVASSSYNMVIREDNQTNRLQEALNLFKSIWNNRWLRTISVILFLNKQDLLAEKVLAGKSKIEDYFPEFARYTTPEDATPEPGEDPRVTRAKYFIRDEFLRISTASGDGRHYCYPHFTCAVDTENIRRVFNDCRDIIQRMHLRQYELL
UniProt P20357: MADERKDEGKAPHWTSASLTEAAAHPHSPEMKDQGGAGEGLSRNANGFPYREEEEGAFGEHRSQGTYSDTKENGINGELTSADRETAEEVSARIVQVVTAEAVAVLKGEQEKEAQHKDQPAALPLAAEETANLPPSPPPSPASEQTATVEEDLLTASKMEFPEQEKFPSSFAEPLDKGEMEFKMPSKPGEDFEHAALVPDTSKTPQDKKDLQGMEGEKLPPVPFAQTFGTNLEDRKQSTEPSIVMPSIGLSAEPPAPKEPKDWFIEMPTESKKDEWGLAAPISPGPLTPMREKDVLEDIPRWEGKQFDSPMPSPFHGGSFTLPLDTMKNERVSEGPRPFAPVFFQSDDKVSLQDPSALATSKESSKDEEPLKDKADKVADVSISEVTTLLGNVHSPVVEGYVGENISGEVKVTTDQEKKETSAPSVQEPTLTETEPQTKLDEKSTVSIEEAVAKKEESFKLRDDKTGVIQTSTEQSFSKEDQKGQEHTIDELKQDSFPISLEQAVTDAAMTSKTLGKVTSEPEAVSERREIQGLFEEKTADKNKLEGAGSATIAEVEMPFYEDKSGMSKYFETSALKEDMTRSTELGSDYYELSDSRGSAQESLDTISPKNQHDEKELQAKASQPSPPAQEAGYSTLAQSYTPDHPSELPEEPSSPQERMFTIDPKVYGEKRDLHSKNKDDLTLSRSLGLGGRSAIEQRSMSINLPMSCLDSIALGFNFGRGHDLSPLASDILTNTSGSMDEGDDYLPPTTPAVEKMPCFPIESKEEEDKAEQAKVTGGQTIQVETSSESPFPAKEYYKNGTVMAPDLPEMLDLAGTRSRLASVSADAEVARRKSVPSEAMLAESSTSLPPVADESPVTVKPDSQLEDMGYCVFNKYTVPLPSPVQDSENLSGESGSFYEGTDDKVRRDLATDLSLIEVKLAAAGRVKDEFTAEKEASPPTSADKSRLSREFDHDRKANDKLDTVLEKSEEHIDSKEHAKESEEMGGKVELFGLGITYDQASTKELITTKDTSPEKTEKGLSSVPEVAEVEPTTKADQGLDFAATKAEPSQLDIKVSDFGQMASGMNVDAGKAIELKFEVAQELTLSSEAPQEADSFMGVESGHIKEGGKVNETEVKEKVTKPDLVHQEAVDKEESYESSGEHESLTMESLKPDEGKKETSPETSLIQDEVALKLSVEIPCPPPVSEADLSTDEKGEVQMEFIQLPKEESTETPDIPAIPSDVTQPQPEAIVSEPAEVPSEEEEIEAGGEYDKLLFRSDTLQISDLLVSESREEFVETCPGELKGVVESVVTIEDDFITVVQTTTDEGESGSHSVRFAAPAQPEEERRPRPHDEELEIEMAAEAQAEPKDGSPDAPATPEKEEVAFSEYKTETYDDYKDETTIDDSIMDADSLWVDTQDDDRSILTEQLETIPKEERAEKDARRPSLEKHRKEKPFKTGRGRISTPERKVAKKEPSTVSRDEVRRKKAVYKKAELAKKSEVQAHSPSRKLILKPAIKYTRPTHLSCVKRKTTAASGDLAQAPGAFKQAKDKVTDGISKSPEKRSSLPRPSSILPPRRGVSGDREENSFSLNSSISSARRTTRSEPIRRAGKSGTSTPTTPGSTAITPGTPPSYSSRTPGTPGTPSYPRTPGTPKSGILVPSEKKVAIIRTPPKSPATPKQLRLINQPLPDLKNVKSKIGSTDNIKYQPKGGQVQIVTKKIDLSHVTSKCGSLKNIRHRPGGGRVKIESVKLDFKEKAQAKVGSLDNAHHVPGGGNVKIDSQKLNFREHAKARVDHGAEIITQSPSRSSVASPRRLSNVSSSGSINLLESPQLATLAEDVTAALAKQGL

T1: Brsk2, bait of the co-immunoprecipitation analysed by mass spectrometry in MIN6 cells (UniProt Q8IWQ3)
T1 sequence: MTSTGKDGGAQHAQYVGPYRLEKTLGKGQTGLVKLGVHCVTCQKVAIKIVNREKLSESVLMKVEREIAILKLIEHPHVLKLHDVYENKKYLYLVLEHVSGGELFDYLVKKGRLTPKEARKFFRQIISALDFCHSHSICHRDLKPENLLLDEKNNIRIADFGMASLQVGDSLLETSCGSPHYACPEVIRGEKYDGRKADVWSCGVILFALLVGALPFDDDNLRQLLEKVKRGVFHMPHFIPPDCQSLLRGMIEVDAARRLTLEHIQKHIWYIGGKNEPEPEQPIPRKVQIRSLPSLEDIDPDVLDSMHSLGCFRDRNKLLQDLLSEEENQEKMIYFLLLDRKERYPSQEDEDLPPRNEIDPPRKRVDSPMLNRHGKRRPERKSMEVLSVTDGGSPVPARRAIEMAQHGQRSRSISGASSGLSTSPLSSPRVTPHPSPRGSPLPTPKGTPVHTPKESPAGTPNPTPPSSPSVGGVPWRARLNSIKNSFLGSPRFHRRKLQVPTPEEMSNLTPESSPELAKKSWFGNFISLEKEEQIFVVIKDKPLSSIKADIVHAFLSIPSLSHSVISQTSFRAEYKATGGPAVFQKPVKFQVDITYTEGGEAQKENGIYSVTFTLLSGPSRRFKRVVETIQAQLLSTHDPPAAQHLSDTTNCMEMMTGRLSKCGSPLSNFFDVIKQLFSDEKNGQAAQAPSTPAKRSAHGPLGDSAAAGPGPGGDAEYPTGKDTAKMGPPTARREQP


Key:
[1] = molecular target: T1, Brsk2, bait of the co-immunoprecipitation analysed by mass spectrometry in MIN6 cells; test: affinity purification with mass spectrometry
[2] = molecular target: T1, Brsk2, bait of the co-immunoprecipitation analysed by mass spectrometry in MIN6 cells; test: affinity purification with mass spectrometry; remark: listed apart in the source

binding [1]	binding [2]	Molecule
binds		Arrb2 of MIN6 cells (from UniProt Q91YI4 1-410)
binds		Gnas of MIN6 cells (from UniProt P63094 1-394)
binds		Map2 of MIN6 cells (from UniProt P20357 1-1828)
	binds	phospholipase A2 activating protein (Plaa) of MIN6 cells (protein, UniProt P27612 1-794) MASGASRYRLSCSLPGHELDVRGLVCCLYPPGAFVSVSRDRTTRLWAPDSPNRGFTEMHCMSGHSNFVSCVCIIPSSDIYPHGLIATGGNDHNICIFSLDSPMPLYILKGHKDTVCSLSSGKFGTLLSGSWDTTAKVWLNDKCMMTLQGHTAAVWAVKILPEQGLMLTGSADKTIKLWKAGRCERTFLGHEDCVRGLAILSETEFLSCANDASIRRWQITGECLEVYFGHTNYIYSISVFPNSKDFVTTAEDRSLRIWKHGECAQTIRLPAQSIWCCCVLENGDIVVGASDGIIRVFTESEERTASAEEIKAFERELSQATIDSKTGDLGDINAEQLPGREHLSEPGTREGQTRLIRDGERVEAYQWSVSDGRWIKIGDVVGSSGANQQTSGKVLYEGKEFDYVFSIDVNEGGPSYKLPYNVSDDPWLVAYNFLQKNDLNPMFLDQVAKFIIDNTKGQTLGLGNTSFSDPFTGGGRYVPGTSGPSNTVQTADPFTGAGRYMPGSAGMDTTMTGVDPFTGNSAYRSAASKTVNIYFPKKEALTFDQANPTQILGKLKELNGTAPEEKKLTEDDLVLLEKILSLICNNSSEKPTAQQLQILWKAINWPEDIVFPALDILRLSIKHPNVNENFCNEKGDQFSSHLINLLNPKGKPANQLLALRTFCNCFVSQAGQKLMMSQRESLMSHAIELKSGSNKNIHIALATLTLNYSVCFHKDHNIEGKAQCLSVISTILEVVQDLEATFRLLVALGTLISDDSNAIQLAKSLGVDSQIKKYVSVSEPAKVSECCRLVLHLL
